The record followed here is PubChem BioAssay AID194 (DTP/NCI, 2004).

In this test the test system is BDF1 mice, B16 melanoma s.c., survival/tumor T/C. The experiment in a line: NCI In Vivo Anticancer Drug Screen. Data for tumor model B16 Melanoma (subcutaneous) in B6D2F1 (BDF1) mice. The protocol:
The antitumor activity of compounds was measured in mice bearing transplantable tumors. Survival or tumor size were measured and the results are expressed as the measurement made in the treated group (T) divided by the measurement made in the vehicle treated control group (C). The tumor model used in this assay is B16 Melanoma (subcutaneous) in B6D2F1 (BDF1) mice

Where [1] appears, read: T/C endpoint: median survival time, dose: 25.0 mg/kg/injection, schedule: Q01DX009 (ip), vehicle: Klucel (hydroxypropylcellulose) (HPC), higher T/C = longer survival.
[2] abbreviates: T/C endpoint: median survival time, dose: 50.0 mg/kg/injection, schedule: Q01DX009 (ip), vehicle: Klucel (hydroxypropylcellulose) (HPC), higher T/C = longer survival.
The mark [3] stands for this setting: T/C endpoint: median survival time, dose: 4.0 mg/kg/injection, schedule: Q01DX009 (ip), vehicle: Klucel (hydroxypropylcellulose) (HPC), higher T/C = longer survival.
The mark [4] stands for this setting: T/C endpoint: median survival time, dose: 4.0 mg/kg/injection, schedule: Q01DX009 (ip), vehicle: saline, higher T/C = longer survival.
[5] abbreviates: T/C endpoint: median survival time, dose: 8.0 mg/kg/injection, schedule: Q01DX009 (ip), vehicle: saline, higher T/C = longer survival.
Where [6] appears, read: T/C endpoint: median survival time, dose: 16.0 mg/kg/injection, schedule: Q01DX009 (ip), vehicle: saline, higher T/C = longer survival.
[7] abbreviates: T/C endpoint: median survival time, dose: 25.0 micrograms/kg/injection, schedule: Q01DX009 (ip), vehicle: saline, higher T/C = longer survival.
The mark [8] stands for this setting: T/C endpoint: median survival time, dose: 50.0 micrograms/kg/injection, schedule: Q01DX009 (ip), vehicle: saline, higher T/C = longer survival.
Where [9] appears, read: T/C endpoint: median survival time, dose: 100.0 micrograms/kg/injection, schedule: Q01DX009 (ip), vehicle: saline, higher T/C = longer survival.

SMILES strings stand for the structures. The list shows only some results of the screen, not a fair sample: it gathers tests that were run many times, whatever their T/C, doses with no T/C, and many T/C values between a quarter and a half above the control. Other doses and runs of a compound stand elsewhere. T/C: endpoint of the treated group in % of that of the vehicle group. Some entries give survivors of the animals treated and no T/C: the source files T/C as zero there, which appears to mark a toxic dose or a test without result, not a measured value. Some doses without a T/C left all or most animals alive at the check, yet need not have been tolerated: the source hardly ever lists a survival T/C far under the control, and the zero likely stands for such cases as well. Counts of survivors are from the toxicity check (mostly the fifth day) where no day follows; animals may have died later. Schedule codes are those of the source, taken here to give the interval after Q, in days (D) or hours (H), and the number of doses after X. Some entries were tested several times; the values are given in rising order. Where survival is the endpoint, this PubChem deposit counts one and a half times the control or more as active, and values a quarter to a half above the control carry no call in these data; other NCI protocols may use other cut-offs. Some T/C values carry the count of animals alive at the toxicity check (mostly the fifth day); where none is given, no animal had died by that day. *1 amine or outer side, *2 acyl side, *3 side chain or, on linkers, in order; H or OH if unused. Where a SMILES comes first, the peptide text is derived from it. Bridges are numbered along the chain shown (N, C = ends). Roman numbers before positions name the chains, in order. [ ]: non-standard residue; d: D form. Actinocin(9to1) = Cc1c2oc3c(C)ccc(C(=O)[*:1])c3nc-2c(C(=O)[*:2])c(N)c1=O; aThr = C[C@H](O)[C@H](N)C(=O)O; NMeV = CN[C@H](C(=O)O)C(C)C; Sar = CNCC(=O)O

`S=c1nc[nH]c2nc[nH]c12`: the survivor count is 5 of 6 (T/C endpoint: median survival time, dose: 12.5 mg/kg/injection, schedule: Q01DX009 (ip), vehicle: Klucel (hydroxypropylcellulose) (HPC), higher T/C = longer survival); 5 of 6 and 6 of 6 under setting [1]; 6 of 6 under setting [2]; 6 of 6 (T/C endpoint: median survival time, dose: 100.0 mg/kg/injection, schedule: Q01DX009 (ip), vehicle: Klucel (hydroxypropylcellulose) (HPC), higher T/C = longer survival); 6 of 6 (T/C endpoint: median survival time, dose: 200.0 mg/kg/injection, schedule: Q01DX009 (ip), vehicle: Klucel (hydroxypropylcellulose) (HPC), higher T/C = longer survival); 6 of 6 (T/C endpoint: median survival time, dose: 200.0 mg/kg/injection, schedule: Q01DX009 (ip), vehicle: saline with Tween-80, higher T/C = longer survival). In addition, the survivor count was 3 of 6 (T/C endpoint: median tumor weight (est.), dose: 100.0 mg/kg/injection, schedule: Q01DX009 (ip), vehicle: Klucel (hydroxypropylcellulose) (HPC), higher T/C = larger tumour) and 2 of 6 (T/C endpoint: median tumor weight (est.), dose: 100.0 mg/kg/injection, schedule: Q01DX009 (ip), vehicle: saline with Tween-80, higher T/C = larger tumour). Moreover, the T/C runs as follows: under setting [1], 114, 128, 147, 169 % of control; under setting [2], 98, 110, 114 % of control.
Consider `Cc1c2ccncc2c(C)c2c1[nH]c1ccccc12`, for which the T/C runs as follows: (T/C endpoint: median survival time, dose: 28.0 mg/kg/injection, schedule: Q01DX009 (ip), vehicle: saline with Tween-80, higher T/C = longer survival) 125 % of control; (T/C endpoint: median survival time, dose: 42.0 mg/kg/injection, schedule: Q01DX009 (ip), vehicle: saline with Tween-80, higher T/C = longer survival) 140 % of control; (T/C endpoint: median survival time, dose: 123.0 mg/kg/injection, schedule: Q04DX003 (ip), vehicle: saline with Tween-80, higher T/C = longer survival) 129 % of control; (T/C endpoint: median survival time, dose: 600.0 mg/kg/injection, schedule: Q01DX001 (ip), vehicle: saline with Tween-80, higher T/C = longer survival) 129 % of control. The survivor count is 10 of 10 (T/C endpoint: median survival time, dose: 63.0 mg/kg/injection, schedule: Q01DX009 (ip), vehicle: saline with Tween-80, higher T/C = longer survival) and 10 of 10 (T/C endpoint: median survival time, dose: 184.0 mg/kg/injection, schedule: Q04DX003 (ip), vehicle: saline with Tween-80, higher T/C = longer survival).
With `Nc1ncnc2c1ccn2C1OC(CO)C(O)C1O` (stereo unspecified), the survivor count is given as 9 of 10 (T/C endpoint: median survival time, dose: 2.0 mg/kg/injection, schedule: Q01DX009 (ip), vehicle: Klucel (hydroxypropylcellulose) (HPC), higher T/C = longer survival); 10 of 10 (T/C endpoint: median survival time, dose: 2.0 mg/kg/injection, schedule: Q01DX009 (ip), vehicle: saline, higher T/C = longer survival); 7 of 10 under setting [3]; 9 of 10 under setting [4]; 5 of 10 under setting [5]; 0 of 10 under setting [6].
`COC(=O)Nc1cccc(-c2nc3ccc(NC(=O)OC)cc3c(=O)n2-c2ccccc2)c1`: where the note is “T/C endpoint: median survival time, dose: 200.0 mg/kg/injection, schedule: Q04DX005 (ip), vehicle: other, higher T/C = longer survival”, the survivor count was 5 of 9. For the setting “T/C endpoint: median survival time, dose: 400.0 mg/kg/injection, schedule: Q04DX005 (oral), vehicle: other, higher T/C = longer survival”, the T/C was 128 % of control.
Turning to `CC[CH2][Sn]([CH2]CC)([CH2]CC)[O][Sn]([CH2]CC)([CH2]CC)[CH2]CC`, under setting [4], the survivor count is reported as 5 of 10.
For `O=NN(CCF)C(=O)NCCO`, the survivor count is given as 5 of 10 on day 55 (T/C endpoint: median survival time, dose: 14.4 mg/kg/injection, schedule: Q01DX007 (ip), vehicle: water, higher T/C = longer survival) and 1 of 10 on day 55 (T/C endpoint: median survival time, dose: 24.0 mg/kg/injection, schedule: Q01DX007 (ip), vehicle: water, higher T/C = longer survival).
Regarding `O=C(O)CCCCC1CCSS1` (stereo unspecified), the T/C is, setting by setting: (T/C endpoint: median survival time, dose: 31.25 mg/kg/injection, schedule: Q01DX009 (ip), vehicle: Klucel (hydroxypropylcellulose) (HPC), evaluated on day 29, higher T/C = longer survival) 104 % of control [7 of 8 alive on day 29]; (T/C endpoint: median survival time, dose: 31.25 mg/kg/injection, schedule: Q01DX009 (ip), vehicle: Klucel (hydroxypropylcellulose) (HPC), evaluated on day 59, higher T/C = longer survival) 92 % of control; (T/C endpoint: median survival time, dose: 31.25 mg/kg/injection, schedule: Q01DX009 (ip), vehicle: Klucel (hydroxypropylcellulose) (HPC), evaluated on day 60, higher T/C = longer survival) 93 and 139 % of control; (T/C endpoint: median survival time, dose: 62.5 mg/kg/injection, schedule: Q01DX009 (ip), vehicle: Klucel (hydroxypropylcellulose) (HPC), evaluated on day 29, higher T/C = longer survival) 87 % of control [7 of 8 alive on day 29]; (T/C endpoint: median survival time, dose: 62.5 mg/kg/injection, schedule: Q01DX009 (ip), vehicle: Klucel (hydroxypropylcellulose) (HPC), evaluated on day 59, higher T/C = longer survival) 94 % of control [9 of 10 alive on day 59]; (T/C endpoint: median survival time, dose: 62.5 mg/kg/injection, schedule: Q01DX009 (ip), vehicle: Klucel (hydroxypropylcellulose) (HPC), evaluated on day 60, higher T/C = longer survival) 86 [7 of 8 alive] and 97 % of control. Also, the survivor count is, setting by setting: (T/C endpoint: median survival time, dose: 250.0 mg/kg/injection, schedule: Q01DX009 (ip), vehicle: Klucel (hydroxypropylcellulose) (HPC), higher T/C = longer survival) 0 of 8 and 0 of 8 on day 29; (T/C endpoint: median survival time, dose: 500.0 mg/kg/injection, schedule: Q01DX009 (ip), vehicle: Klucel (hydroxypropylcellulose) (HPC), higher T/C = longer survival) 0 of 8 and 0 of 8 on day 29.
For `CC1OC(=O)C(C(C)C)NC(=O)C(C(C)C)OC(=O)C(C(C)C)NC(=O)C(C)OC(=O)C(C(C)C)NC(=O)C(C(C)C)OC(=O)C(C(C)C)NC(=O)C(C)OC(=O)C(C(C)C)NC(=O)C(C(C)C)OC(=O)C(C(C)C)NC1=O` (stereo unspecified), the survivor count (T/C endpoint: median survival time, dose: 20.0 mg/kg/injection, schedule: Q01DX001 (ip), vehicle: saline with Tween-80, higher T/C = longer survival) is given as 10 of 10.
For `CC(C)(C)c1ccc(CN2CCN(C(c3ccccc3)c3ccc(Cl)cc3)CC2)cc1` (stereo unspecified), the survivor count is, setting by setting: (T/C endpoint: median survival time, dose: 2.8 micrograms/kg/injection, schedule: Q01DX009 (ip), vehicle: Klucel (hydroxypropylcellulose) (HPC), higher T/C = longer survival) 9 of 10; (T/C endpoint: median survival time, dose: 5.6 micrograms/kg/injection, schedule: Q01DX009 (ip), vehicle: Klucel (hydroxypropylcellulose) (HPC), higher T/C = longer survival) 10 of 10; (T/C endpoint: median survival time, dose: 11.2 micrograms/kg/injection, schedule: Q01DX009 (ip), vehicle: Klucel (hydroxypropylcellulose) (HPC), higher T/C = longer survival) 10 of 10.
On to `CC1(C)N=C(N)N=C(N)N1c1ccc(CCCCc2cccc(S(=O)(=O)F)c2)c(Cl)c1`, for which the survivor count runs as follows: under setting [5], 6 of 6; (T/C endpoint: median survival time, dose: 27.0 mg/kg/injection, schedule: Q01DX009 (ip), vehicle: saline, higher T/C = longer survival) 6 of 6; (T/C endpoint: median survival time, dose: 40.0 mg/kg/injection, schedule: Q01DX009 (ip), vehicle: saline, higher T/C = longer survival) 2 of 6.
`Cc1c2oc3c(C)ccc(C(=O)N[C@@H]4C(=O)N[C@H](C(C)C)C(=O)N5CCC[C@H]5C(=O)N(C)CC(=O)N(C)[C@@H](C(C)C)C(=O)O[C@H]4C)c3nc-2c(C(=O)N[C@@H]2C(=O)N[C@H](C(C)C)C(=O)N3CCC[C@H]3C(=O)N(C)CC(=O)N(C)[C@@H](C(C)C)C(=O)O[C@H]2C)c(N)c1=O` (I: [aThr][dV]P[Sar][NMeV] / II: [aThr][dV]P[Sar][NMeV]; ester I:1-I:C, II:1-II:C; linker I:N-II:N via Actinocin(9to1)): the T/C is 87, 104, 110, 114, 135, 136, 143 % of control (T/C endpoint: median survival time, dose: 13.0 micrograms/kg/injection, schedule: Q01DX009 (ip), vehicle: saline, higher T/C = longer survival); 98, 111, 112, 119, 134, 143 % of control under setting [7]; 95, 98, 110, 132 [5 of 6 alive], 136 % of control under setting [8]; 112 and 118 % of control under setting [9]. For the same molecule, the survivor count is recorded as 6 of 6 under setting [7]; 5 of 6 under setting [8]; 0 of 6, 2 of 6, 6 of 6 under setting [9].
Take `CC[C@](O)(C(=O)O)c1cc2n(c(=O)c1CO)Cc1cc3ccccc3nc1-2`: the survivor count by setting is: (T/C endpoint: median survival time, dose: 1.0 mg/kg/injection, schedule: Q01DX009 (ip), vehicle: saline, higher T/C = longer survival) 10 of 10; under setting [3], 10 of 10; under setting [4], 10 of 10; (T/C endpoint: median survival time, dose: 8.0 mg/kg/injection, schedule: Q01DX009 (ip), vehicle: Klucel (hydroxypropylcellulose) (HPC), higher T/C = longer survival) 10 of 10; under setting [5], 10 of 10; under setting [6], 10 of 10. Also, under “T/C endpoint: median survival time, dose: 32.0 mg/kg/injection, schedule: Q01DX009 (ip), vehicle: saline, higher T/C = longer survival”, the survivor count was 8 of 10.
